From PubChem BioAssay AID743255 (National Center for Advancing Translational Sciences (NCATS), 2014)
Values joined by “and” are separate entries in the source; they are usually repeats but may differ in a detail not shown here. Equal values may be shown once. Hit rate of the full screen: of about 390,000 compounds, about 910 (0.23%) were called active. This list was built around the results that the source calls inconclusive (neither active nor inactive); the mix of calls is not that of the screen. Calls follow the shape of the dose curve; as a rule, active = well fitted inhibition curve with a large enough effect; inconclusive = small, poorly fitted or top-dose-only effect; inactive = no such curve, though single readings can be large or run the other way. Potencies of inconclusive entries are doubtful fits and often do not repeat.

Amino acid sequences for entries named in this document (tags omitted). A change or cut given only in a name is not applied to a line headed by its entry.
UniProt O94782: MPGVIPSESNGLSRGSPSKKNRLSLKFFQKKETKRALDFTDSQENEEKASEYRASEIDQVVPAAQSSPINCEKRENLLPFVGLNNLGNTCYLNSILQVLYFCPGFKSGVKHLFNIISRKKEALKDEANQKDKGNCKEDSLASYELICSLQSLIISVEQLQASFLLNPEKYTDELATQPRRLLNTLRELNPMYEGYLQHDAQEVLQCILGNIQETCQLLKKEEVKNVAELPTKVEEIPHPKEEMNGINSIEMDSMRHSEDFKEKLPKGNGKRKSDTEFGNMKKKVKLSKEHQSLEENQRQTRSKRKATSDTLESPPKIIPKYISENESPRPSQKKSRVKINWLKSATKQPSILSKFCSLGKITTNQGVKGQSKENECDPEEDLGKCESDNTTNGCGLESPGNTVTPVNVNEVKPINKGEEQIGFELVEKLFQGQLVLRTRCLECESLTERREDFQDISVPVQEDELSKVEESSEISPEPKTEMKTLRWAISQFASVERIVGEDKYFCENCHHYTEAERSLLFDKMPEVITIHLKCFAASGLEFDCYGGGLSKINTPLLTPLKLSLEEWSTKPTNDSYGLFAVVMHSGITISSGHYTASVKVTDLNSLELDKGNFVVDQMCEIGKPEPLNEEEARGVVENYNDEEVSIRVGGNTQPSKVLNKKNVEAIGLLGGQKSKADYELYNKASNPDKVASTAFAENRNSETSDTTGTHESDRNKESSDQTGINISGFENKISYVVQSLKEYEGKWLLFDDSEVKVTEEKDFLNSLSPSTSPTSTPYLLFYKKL

target: Ubiquitin carboxyl-terminal hydrolase 1 (Homo sapiens) (UniProt O94782); test: Inhibitors of USP1/UAF1: Primary Screen; settings: recombinant USP1/UAF1, Ub-Rhodamine cleavage fluorescence; series mostly up to 57.1 µM; also: nearly all actives have a fitted effect of over 60% in size
Summary of the method: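 USP1/UAF1 complex (1 nM) preincubated 15 min at room temperature with compound, then Ub-Rho substrate (150 nM final) added. Kinetic fluorescence at 480/540 nm over 6 reads at 60 s intervals; 50 mM HEPES pH 7.8, 0.5 mM EDTA, 0.1 mg/ml BSA, 1 mM TCEP, 0.01% Tween-20.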
Potency is read from the fitted curve at half-maximal effect.

Question: Which Potency does the source give for `CC1=C(C(=O)Nc2ccc(Cl)cc2)C(C(C)C)n2nc(SCc3cccc(C)c3)nc2N1` (stereo not given) here?
Answer: inactive

Question: Which Potency does the source give for `O=C(CCSc1ccccc1)NC(=O)COC(=O)c1ccc(OC(F)F)cc1` here?
Answer: inconclusive: 44.7 µM [inhibitor, partial curve, poor fit]

Question: How did the Potency turn out when `CC[C@]12c3[nH]c4cc(-c5ccco5)ccc4c3CCN1C(=O)[C@@H](CC(=O)NCCCOC)C[C@@H]2C(=O)N1CCN(C(=O)c2ccco2)CC1` was run?
Answer: inconclusive: 158 µM [inhibitor, partial curve, poor fit]

Question: Which Potency does the source give for `O=C(O)c1ccc2c(c1)C(=O)/C(=C/c1ccccc1)C2=O` here?
Answer: inconclusive: 17.8 µM [inhibitor, partial curve]

Question: Which Potency does the source give for `CN1CCN(CCCNC(=O)c2cnn(-c3ccccc3)c2C2CCN(C(=O)OC(C)(C)C)CC2)CC1` here?
Answer: inconclusive: 0.316 µM [inhibitor, full curve, poor fit]

Question: Which Potency does the source give for `O=C(NCCF)C1Nc2ccc(OC(F)(F)F)cc2C2C=CCC12` (stereo not given) here?
Answer: inconclusive: 44.7 µM [inhibitor, partial curve, poor fit]

Question: For `Cc1nn(C)c(C)c1NC(=O)CCl`, which Potency is on record?
Answer: inactive

Question: With `COc1ccc(-c2nc3c(C#N)c[nH]n3c2NC2CCCCC2)c(OC)c1` as the molecule, how does the Potency read?
Answer: inconclusive: 28.2 µM [inhibitor, partial curve]

Question: Which Potency does the source give for `COC(=O)CC(=O)Cc1nc(N)nc(Nc2ccc(C)c(C)c2)n1` here?
Answer: inconclusive: 7.08 µM [inhibitor, single point]

Question: Which Potency does the source give for `COc1ccc(-n2ncc(C(=O)NCc3ccccc3)c2C2CCN(C(=O)OC(C)(C)C)CC2)cc1` here?
Answer: inconclusive: 89.1 µM [inhibitor, partial curve, poor fit]

Question: `Cc1ccc(NC(=O)c2cnccn2)cc1S(=O)(=O)N(C)C` was tested. Which Potency did it give?
Answer: inactive

Question: How did the Potency turn out when `CC(=Nc1cccc(O)c1)c1sc2ccccc2c1O` was run?
Answer: inconclusive: 0.282 µM [inhibitor, full curve, poor fit]

Question: With `COc1ccc(OC)c2c1cc(C(=O)N[C@H](C(=O)N1CCC[C@H]1C(=O)O)C(C)C)n2C` as the molecule, how does the Potency read?
Answer: inconclusive: 39.8 µM [inhibitor, partial curve]

Question: How did the Potency turn out when `COc1ccccc1C1c2ccc3ccccc3c2Oc2ncn(CCN(C)C)c(=N)c21` (stereo not given) was run?
Answer: inconclusive: 0.282 µM [inhibitor, full curve, poor fit]

Question: Which Potency does the source give for `CCCN(C(=O)c1cc2c(s1)-c1ccccc1SC2)c1ccccc1F` here?
Answer: inconclusive: 39.8 µM [inhibitor, partial curve]

Question: `CC(CN1CCCCC1)OC(=O)c1ccc2c(c1)OCCO2` (stereo not given) was tested. Which Potency did it give?
Answer: inconclusive: 0.708 µM [inhibitor, partial curve, poor fit]

Question: How did the Potency turn out when `COc1cc(NC(=O)c2ccc(S(=O)(=O)N(C)c3ccccc3OC)cc2)cc(OC)c1` was run?
Answer: inconclusive: 0.355 µM [inhibitor, full curve, poor fit]

Question: Which Potency does the source give for `Cc1ccc(OCc2nc3ccccc3n2CC(C)C)cc1` here?
Answer: inconclusive: 31.6 µM [inhibitor, partial curve]

Question: With `CC(C)(C)c1cc(C(C)(C)C)c2oc(=O)c(-c3nc4ccccc4[nH]3)cc2c1` as the molecule, how does the Potency read?
Answer: inconclusive: 0.316 µM [inhibitor, full curve]

Question: Which Potency does the source give for `Cc1cc(SCC(=O)N/N=C/c2ccco2)nc2ccccc12` here?
Answer: inactive

Question: Which Potency does the source give for `Cc1ccc(-n2c(O)c(/C=N/n3cnnc3)c3ccccc3c2=O)cc1` here?
Answer: inconclusive: 22.4 µM [inhibitor, partial curve] and inconclusive: 39.8 µM [inhibitor, single point]

Question: `CN(C)c1ccc(/C=C/c2ccc3c4ccccc4ccc3[n+]2-c2ccccc2)cc1` was tested. Which Potency did it give?
Answer: inconclusive: 28.2 µM [inhibitor, partial curve, poor fit]

Question: With `COc1cc(C2NC(=O)NC(C)=C2C(=O)Nc2cc(C)cc(C)c2)ccc1O` (stereo not given) as the molecule, how does the Potency read?
Answer: inactive

Question: How did the Potency turn out when `COCC(C)n1c(C)cc(C(=O)CSc2nnc(-c3ccco3)o2)c1C` (stereo not given) was run?
Answer: inconclusive: 3.98 µM [inhibitor, full curve, poor fit]

Question: How did the Potency turn out when `CN1CCc2c(sc(/N=C/c3cccs3)c2C(N)=O)C1` was run?
Answer: inconclusive: 17.8 µM [inhibitor, partial curve]

Question: For `COC(=O)CSc1nnc(CNS(=O)(=O)c2ccc(Br)cc2)n1C`, which Potency is on record?
Answer: inconclusive: 10 µM [inhibitor, partial curve, poor fit]

Question: How did the Potency turn out when `N#Cc1cc(Oc2cccc3cccnc23)c(-n2nnc3ccccc32)cc1C#N` was run?
Answer: inconclusive: 39.8 µM [inhibitor, single point]

Question: For `CCn1c2ccccc2c2cc(C3C(C#N)=C(N)Oc4n[nH]c(COC)c43)ccc21` (stereo not given), which Potency is on record?
Answer: inactive

Question: For `CCOc1ccc(-n2c(C)cc(C(=O)CCl)c2C)cc1`, which Potency is on record?
Answer: inactive

Question: `Cc1nnc(N/N=C/c2cccc(OCc3ccc(Cl)c(Cl)c3)c2)n1N` was tested. Which Potency did it give?
Answer: inconclusive: 31.6 µM [inhibitor, partial curve, poor fit]

Question: With `Cc1ccc(NC(=O)CN2CCCN(Cc3cc(C)ccc3C)S2(=O)=O)c(Cl)c1` as the molecule, how does the Potency read?
Answer: inconclusive: 0.224 µM [inhibitor, full curve]

Question: How did the Potency turn out when `COc1ccc(CNC(=O)CCNC(=O)N2CCn3c2nc2ccccc23)cc1` was run?
Answer: inactive

Question: With `COc1ccc(OCC(=O)NCc2nc(-c3ccccc3)no2)cc1` as the molecule, how does the Potency read?
Answer: inactive

Question: How did the Potency turn out when `CCC(=O)N(Cc1ccco1)c1nc(-c2cc(OC)ccc2OC)cs1` was run?
Answer: inconclusive: 44.7 µM [inhibitor, partial curve]

Question: Which Potency does the source give for `CCOC(=O)/C(=N\Nc1cc(Cl)ccc1Cl)N1CCOCC1` here?
Answer: inactive

Question: How did the Potency turn out when `O=C(NCc1cccnc1)c1nnc(Cc2ccc(F)cc2)o1` was run?
Answer: inconclusive: 28.2 µM [inhibitor, partial curve]

Question: With `O=C(CCc1ccccc1)Nc1nnc(-c2cccs2)o1` as the molecule, how does the Potency read?
Answer: inconclusive: 39.8 µM [inhibitor, partial curve, poor fit]

Question: Which Potency does the source give for `CC1Cc2ccccc2N1C(=O)CNc1cccc(S(=O)(=O)N2CCCC2)c1` (stereo not given) here?
Answer: inconclusive: 1.26 µM [inhibitor, partial curve]

Question: Which Potency does the source give for `Cc1cc(C)cc(NC(=O)C2CCN(S(=O)(=O)c3cccc4nonc34)CC2)c1` here?
Answer: inactive

Question: Which Potency does the source give for `CCOC(=O)c1sc(NC(=O)CCN2CCN(CC)CC2)c(C(=O)OCC)c1C` here?
Answer: inactive

Question: How did the Potency turn out when `Clc1ccccc1-c1nc(Nc2ccccc2)nc2ccc(Br)cc12` was run?
Answer: inconclusive: 5.01 µM [inhibitor, partial curve]

Question: Which Potency does the source give for `O=C(CSc1nnc(Cc2cccs2)n1Cc1ccco1)Nc1cccc(Cl)c1` here?
Answer: inactive

Question: Which Potency does the source give for `O=C(Nc1ccn(CCCN(CCCn2ccc(NC(=O)OCc3ccccc3)nc2=O)CCc2cc3ccccc3[nH]2)c(=O)n1)OCc1ccccc1` here?
Answer: inconclusive: 15.8 µM [inhibitor, partial curve, poor fit]

Question: For `CC(=O)c1cc(C(=O)Nc2cccc(C)c2)c2ccccn12`, which Potency is on record?
Answer: inconclusive: 1 µM [inhibitor, full curve, poor fit]

Question: With `COc1ccc(N2CCN(C(=O)CCS(=O)(=O)c3cc4c(cc3Cl)NC(=O)CO4)CC2)cc1` as the molecule, how does the Potency read?
Answer: inactive

Question: How did the Potency turn out when `CCN1c2ccccc2-c2nc(SCC(=O)Nc3ccc(C)c(Cl)c3)ncc2S1(=O)=O` was run?
Answer: inconclusive: 50.1 µM [inhibitor, partial curve, poor fit]

Question: For `O=C(COC(=O)c1ccc([N+](=O)[O-])o1)Nc1ccc2c(c1)OC(F)(F)O2`, which Potency is on record?
Answer: inconclusive: 44.7 µM [inhibitor, partial curve]

Question: With `CN1CCN(NC(=O)c2ccccc2F)CC1` as the molecule, how does the Potency read?
Answer: inactive

Question: `CCc1ccc2[nH]c(=O)c(C(c3nnnn3Cc3ccco3)N3CCC(C)CC3)cc2c1` (stereo not given) was tested. Which Potency did it give?
Answer: inconclusive: 44.7 µM [inhibitor, partial curve]

Question: For `COC(=O)c1c(NC(=O)c2ccc(S(=O)(=O)N3CC(C)OC(C)C3)cc2)sc2c1CCN(C)C2` (stereo not given), which Potency is on record?
Answer: inactive

Question: Which Potency does the source give for `O=C1Cc2ccccc2C(=O)N1c1ccccc1` here?
Answer: inconclusive: 15.8 µM [inhibitor, partial curve]

Question: For `COC(=O)c1ccc(C)c(NC(=O)CCn2[nH]c(=O)ccc2=O)c1`, which Potency is on record?
Answer: inconclusive: 44.7 µM [inhibitor, partial curve, poor fit]

Question: For `Cc1ccc2cc(CN(CC3CCCO3)C(=S)NCc3ccco3)c(=O)[nH]c2c1C` (stereo not given), which Potency is on record?
Answer: inactive

Question: For `COC(=O)CCc1sc(Nc2ccc(OC)cc2)nc1-c1ccc(OC)cc1`, which Potency is on record?
Answer: inactive

Question: For `Cc1ccc(Oc2cc(NC(=O)CCCn3nc([N+](=O)[O-])cc3C)cc([N+](=O)[O-])c2)cc1`, which Potency is on record?
Answer: inactive

Question: For `Oc1ccc(/C=N/Nc2ccc(Cl)nn2)c(O)c1O`, which Potency is on record?
Answer: inconclusive: 50.1 µM [inhibitor, partial curve]

Question: Which Potency does the source give for `COc1ccc(Cn2c(C3CC3)nc3ccc(NC(=O)C4CC4)cc3c2=O)cc1` here?
Answer: inactive

Question: How did the Potency turn out when `CC(Nc1ccccc1N1CCCCC1)C(=O)N1CCc2ccccc21` (stereo not given) was run?
Answer: inactive

Question: For `Cc1ccc(C(C(=O)NC(C)(C)C)N(CCCN2CCOCC2)C(=O)c2ccc(-c3ccccc3)[nH]2)o1` (stereo not given), which Potency is on record?
Answer: inconclusive: 7.08 µM [inhibitor, partial curve, poor fit]

Question: With `CCOC(=O)c1ccc(NC(=O)CC2C(=O)N(c3ccccc3)C(=O)N2Cc2cccs2)cc1` (stereo not given) as the molecule, how does the Potency read?
Answer: inconclusive: 178 µM [inhibitor, partial curve, poor fit]

Question: For `O=C(CSc1nccn1Cc1ccc(Cl)cc1)NC1CCCC1`, which Potency is on record?
Answer: inconclusive: 4.47 µM [inhibitor, single point]

Question: With `CN1/C(=C\C=C2/C(=O)Oc3ccccc3C2=O)C(C)(C)c2ccccc21` as the molecule, how does the Potency read?
Answer: inconclusive: 31.6 µM [inhibitor, partial curve, poor fit]

Question: How did the Potency turn out when `CN(C)c1cccc2c(S(=O)(=O)Nc3ccccn3)cccc12` was run?
Answer: inconclusive: 14.1 µM [inhibitor, partial curve]

Question: `CCOC(=O)C1CCN(C(=O)C2COc3ccccc3C2)CC1` (stereo not given) was tested. Which Potency did it give?
Answer: inconclusive: 10 µM [inhibitor, partial curve, poor fit]

Question: How did the Potency turn out when `O=C1/C(=C/c2cccnc2)Sc2ccccc21` was run?
Answer: inconclusive: 8.91 µM [inhibitor, full curve]
